Results deposited as PubChem BioAssay AID1159584 (Peter MacCallum Cancer Centre, 2016)
The deposit covers about 18,000 reagents; below is a random part of them. Not all columns of the deposit are shown. No sequences are given here. The record does not give: the amount of reagent, the time to read-out.

Assay: 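Genes whose loss is lethal only together with E-cadherin loss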 (primary screen)
Cells: human MCF10A breast epithelial cells, parental and CDH1-null
Reagents: siRNA against human genes
Detection: 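Cell viability by CellTiter-Glo ATP luminescence, each line scaled to the mean of mock wells across plates, then CDH1-null over parental ratio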
Reading the numbers: CDH1-null / parental viability ratio: higher = CDH1-null cells survive relatively better than parental; CDH1-null viability vs mock: higher = more viable CDH1-null cells
Units: CDH1-null viability vs mock in fraction of mock

MRPL53 showed CDH1-null / parental viability ratio 1.1; CDH1-null viability vs mock 0.86.
Against MOCS2 the deposit lists CDH1-null / parental viability ratio 0.87; CDH1-null viability vs mock 0.78.
Depletion of ATP1B1 resulted in: CDH1-null / parental viability ratio 1.1; CDH1-null viability vs mock 0.92.
Against CADPS2, the values are CDH1-null / parental viability ratio 0.89; CDH1-null viability vs mock 0.57.
Silencing of POU2F1 came out at: CDH1-null / parental viability ratio 0.88; CDH1-null viability vs mock 0.79.
After knock-down of LRRC8D the results were CDH1-null / parental viability ratio 0.49; CDH1-null viability vs mock 0.34.
After knock-down of RGS16 the results were CDH1-null / parental viability ratio 1.09; CDH1-null viability vs mock 0.81.
Against PRRT2, the values are CDH1-null / parental viability ratio 0.93; CDH1-null viability vs mock 0.92.
Against RRP15 the deposit lists CDH1-null / parental viability ratio 0.85; CDH1-null viability vs mock 0.67.
Against KDM3A, the values are CDH1-null / parental viability ratio 0.86; CDH1-null viability vs mock 0.65.
ZNF584 showed CDH1-null / parental viability ratio 1.04; CDH1-null viability vs mock 0.59.
DEFB104A scored CDH1-null / parental viability ratio 1.31; CDH1-null viability vs mock 0.84.
Against CD248, the entry reads CDH1-null / parental viability ratio 0.84; CDH1-null viability vs mock 0.92.
Depletion of TMEM130 gave: CDH1-null / parental viability ratio 0.97; CDH1-null viability vs mock 0.76.
For CYP21A2 the deposit lists CDH1-null / parental viability ratio 1.08; CDH1-null viability vs mock 1.04.
Knock-down of PYGM came out at: CDH1-null / parental viability ratio 0.7; CDH1-null viability vs mock 0.62.
After knock-down of CDKN1B the results were CDH1-null / parental viability ratio 0.88; CDH1-null viability vs mock 0.76.
SARS2 gave CDH1-null / parental viability ratio 0.64; CDH1-null viability vs mock 0.36.
After knock-down of GPR45 the results were CDH1-null / parental viability ratio 0.91; CDH1-null viability vs mock 0.82.
After knock-down of PDC, the screen gave CDH1-null / parental viability ratio 0.8; CDH1-null viability vs mock 0.71.
For TYW3 the deposit lists CDH1-null / parental viability ratio 0.94; CDH1-null viability vs mock 0.84.
For OR5H1, the values are CDH1-null / parental viability ratio 1.14; CDH1-null viability vs mock 1.19.
With knock-down of SARS1 the results were CDH1-null / parental viability ratio 0.81; CDH1-null viability vs mock 0.52.
RIPK1 gave CDH1-null / parental viability ratio 1; CDH1-null viability vs mock 0.74.
After knock-down of GDPGP1, the screen gave CDH1-null / parental viability ratio 0.8; CDH1-null viability vs mock 0.69.
With knock-down of RTF2, the record shows CDH1-null / parental viability ratio 0.71; CDH1-null viability vs mock 0.64.
Depletion of ANKFY1 resulted in: CDH1-null / parental viability ratio 0.78; CDH1-null viability vs mock 0.62.
For GCOM1, the entry reads CDH1-null / parental viability ratio 0.96; CDH1-null viability vs mock 0.8.
Silencing of DCAF13 gave: CDH1-null / parental viability ratio 0.9; CDH1-null viability vs mock 0.53.
After knock-down of INTS9, the record shows CDH1-null / parental viability ratio 0.91; CDH1-null viability vs mock 0.82.
ARID4B scored CDH1-null / parental viability ratio 1.09; CDH1-null viability vs mock 0.88.
After knock-down of HLA-DRA, the screen gave CDH1-null / parental viability ratio 1.16; CDH1-null viability vs mock 1.08.
Depletion of KRABD3 came out at: CDH1-null / parental viability ratio 0.85; CDH1-null viability vs mock 0.7.
MAS1L scored CDH1-null / parental viability ratio 0.89; CDH1-null viability vs mock 0.88.
SLC22A11 scored CDH1-null / parental viability ratio 1.14; CDH1-null viability vs mock 1.12.

Limited to “CDH1-null / parental viability ratio” (2 entries from above):
ATP1B1: 1.1
CADPS2: 0.89
